Source: ChEMBL document CHEMBL3988442, “University of Dundee, Small-Polar-MMV Screening Library” (2021).

By UniProt entry, the sequences of proteins in these tests, tags left out.
UniProt E9BF75, entry or part of it: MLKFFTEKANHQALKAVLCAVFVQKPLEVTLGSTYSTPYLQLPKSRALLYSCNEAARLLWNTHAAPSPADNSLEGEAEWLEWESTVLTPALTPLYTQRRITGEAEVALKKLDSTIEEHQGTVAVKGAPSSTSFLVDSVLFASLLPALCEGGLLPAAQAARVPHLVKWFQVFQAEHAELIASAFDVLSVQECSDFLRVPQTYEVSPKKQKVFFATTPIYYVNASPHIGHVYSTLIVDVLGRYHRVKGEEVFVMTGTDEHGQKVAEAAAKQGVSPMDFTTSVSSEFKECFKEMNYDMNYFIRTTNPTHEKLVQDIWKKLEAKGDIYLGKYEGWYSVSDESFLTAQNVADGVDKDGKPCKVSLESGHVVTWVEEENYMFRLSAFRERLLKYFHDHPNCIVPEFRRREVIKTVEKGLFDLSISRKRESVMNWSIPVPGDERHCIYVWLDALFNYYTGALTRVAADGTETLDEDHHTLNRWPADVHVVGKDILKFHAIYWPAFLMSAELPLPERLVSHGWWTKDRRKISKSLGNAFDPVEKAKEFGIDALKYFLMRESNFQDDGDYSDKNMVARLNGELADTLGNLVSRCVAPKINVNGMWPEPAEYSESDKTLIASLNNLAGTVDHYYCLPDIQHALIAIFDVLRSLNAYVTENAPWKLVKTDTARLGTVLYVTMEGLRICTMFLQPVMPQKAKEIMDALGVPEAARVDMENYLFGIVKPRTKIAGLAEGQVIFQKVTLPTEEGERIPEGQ

Mtb heat-shock: 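Assay on Mycobacterium tuberculosis, filed only as a heat shock assay from Cornell; the read-out is not stated. The concentration is filed as 10 mM, unlikely as a test dose, so the dose is not known. Higher reads as stronger inhibition (inferred: compounds with an IC50 in retests scored well above the rest). Of about 69,000 compounds tested this way, about 930 (1.4%) reached 50% or more in at least one test.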
Mtb growth Cornell: 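Whole-cell assay for inhibitors of Mycobacterium tuberculosis growth, labelled Cornell in the record; the read-out is not stated. The concentration is filed as 10 mM, unlikely as a test dose, so the dose is not known. Higher means stronger inhibition (inferred from two other growth screens of the library). About 53,000 compounds were tested under these conditions; 1.7% (about 900) showed 50% or more at least once.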
LdMetRS: 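Methionyl-tRNA synthetase (putative), Leishmania donovani (UniProt E9BF75). Primary screen of methionyl-tRNA synthetase; the read-out is not stated. The test concentration is not given. The values are filed as inhibition. Size under these conditions: about 68,000 compounds, about 24 of them at 50% or above in at least one test.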

All values are in %.
The record does not define 0% and 100%; most values in the screen are far below 50% and negative numbers occur (in some assays of this library far below -100).
This is an unselected part of the compounds tested.
A dash means the value is not listed here; it may have been measured.

| structure | Mtb heat-shock | Mtb growth Cornell | LdMetRS |
|---|---|---|---|
| `CC(C)c1nnc(NCCS(C)(=O)=O)s1` | 9.397 | -17.83 | 1.242 |
| `Cc1ccc(C(=O)NC2CCN(Cc3cccc4c3OCCO4)CC2)s1` | 1.942 | -42.94 | 22.64 |
| `COCCCN(C)S(=O)(=O)c1ccc(Cl)cc1C#N` | -16.35 | 21.88 | 16.19 |
| `CC(=O)C(Cc1ccccc1)NC(=O)CSc1nccn1C1CC1` (stereo unspecified) | -6.598 | 10.6 | 14.5 |
| `[H][C@@]12CCCN[C@]1([H])CN(C(=O)NCC(C)C)C2` | 9.913 | - | - |
| `CN(Cc1csc(-c2ccccc2)n1)C(=O)CCn1ccccc1=O` | -11.56 | 0.261 | 10.56 |
| `O=C(O)C(F)(F)F.O=C(O)C(F)(F)F.c1ccc(CNCC2Cn3nnc(-c4ccncc4)c3CO2)nc1` (stereo unspecified) | -18.01 | 18.18 | - |
| `CCc1n[nH]c(SCC(=O)N2CCc3[nH]nc(C4CCC4)c3C2)n1` | -5.944 | -41.75 | 5.108 |
| `Cc1ccc(NC(=O)N2C[C@H]3CC[C@@H]2CN(Cc2cscn2)C3)cc1` | - | - | 17.04 |
| `CCc1noc(C2CCCCN2C(=O)c2cccs2)n1` (stereo unspecified) | -16.23 | - | -25.88 |
| `CCc1cc(NC(=O)C(c2cccc(F)c2)N2CCOCC2)[nH]n1` (stereo unspecified) | -19.62 | -14.2 | 12.2 |
| `CCC1C(=O)NCCN1c1ccnc(C(C)(C)C)n1` (stereo unspecified) | -31.11 | -1.312 | 11.54 |
| `Cc1noc(C2CCN(Cc3cc(=O)n(C)c(=O)n3C)CC2)n1` | -5.735 | - | 13.29 |
| `CCCN1CCCC2(CCN(C(=O)CCCn3cncn3)C2)C1=O` (stereo unspecified) | 12.99 | - | 14.84 |
| `[H][C@@]12C[C@@H](OCCOC)CN1CCN(C(=O)c1ccc(C)nc1)C2` | 3.144 | 5.385 | - |
| `CN1CCN(c2ccnc3c(F)cc(Br)cc23)CC1` | 19.26 | - | 16.94 |
| `CCc1noc(C)c1C(=O)N1CCCN(Cc2csc(C)n2)CC1` | 15.22 | -52.3 | 3.655 |
| `Cn1ccc(C2CCCCCN2C(=O)c2cccnc2)n1` (stereo unspecified) | 2.031 | -55.79 | 13.83 |
| `Cc1cc(C)n(CCCn2cncc2-c2ccc3c(c2)CC(C)N3C)n1.Cl` (stereo unspecified) | 79.43 | 63.97 | - |
| `O=C(N1CCCC1)N1Cc2nccn2CC(CN2CCCC2)C1` (stereo unspecified) | - | - | 17.17 |
| `CCOC1CC2(CCN(Cc3cnn(C)c3)CC2)c2ccc(C)cc21` (stereo unspecified) | 6.684 | -4.192 | 19.3 |
| `CC(C)CCN1CN=C(NS(=O)(=O)c2ccc(F)cc2)NC1` | 15.44 | - | 14.52 |
| `O=C(O)C(F)(F)F.[H][C@@]12COC[C@]1(c1nnc(C)o1)CN(S(=O)(=O)c1cccnc1)C2` | 48.22 | -1.159 | - |
| `COc1cccc(CNC(=O)CC2CSc3ncc(C)c(=O)n32)c1` (stereo unspecified) | 8.392 | -2.353 | 6.863 |
| `COc1ccc(S(=O)(=O)N2CCOC[C@H](Oc3cnccn3)C2)cc1` | -16.65 | 3.731 | 10.53 |
| `c1cnn(CC2CCCCN2c2ncnc3sccc23)c1` (stereo unspecified) | 14.06 | 12.58 | 12.68 |
| `O=C(O)C(F)(F)F.[H][C@]12CN(Cc3cc(C)on3)C[C@@]1([H])OCCN(C(=O)c1cccn1C)C2` | -27.06 | 10.61 | - |
| `CCn1cnnc1CNC(=O)N(C)Cc1cccc(Cl)c1Cl` | -9.487 | 8.767 | 11.14 |
| `Cc1cccc(S(=O)(=O)N2CCCC3(CCCN3S(C)(=O)=O)C2)c1` (stereo unspecified) | -25.88 | - | 9.645 |
| `Cc1c(C2N3C[C@]4(C(C)C)CN2C[C@](C(C)C)(C3)C4=O)[nH]c(=O)[nH]c1=O` (stereo partly specified) | 1.038 | 11.22 | 6.775 |
| `Cc1ccccc1CCC1CCCN(Cc2c(C)[nH]c(=O)[nH]c2=O)C1` (stereo unspecified) | 15.44 | - | 6.406 |
| `O=C(O)C(F)(F)F.O=C(O)C(F)(F)F.O=C(O)C(F)(F)F.c1cc(CN2CCCC23CCCN(Cc2ccoc2)C3)ccn1` (stereo unspecified) | -3.855 | 20.84 | - |

Once more, the final 3:

structure	Mtb heat-shock	Mtb growth Cornell	LdMetRS
Cc1c(C2N3C[C@]4(C(C)C)CN2C[C@](C(C)C)(C3)C4=O)[nH]c(=O)[nH]c1=O (stereo partly specified)	1.038	11.22	6.775
Cc1ccccc1CCC1CCCN(Cc2c(C)[nH]c(=O)[nH]c2=O)C1 (stereo unspecified)	15.44	-	6.406
O=C(O)C(F)(F)F.O=C(O)C(F)(F)F.O=C(O)C(F)(F)F.c1cc(CN2CCCC23CCCN(Cc2ccoc2)C3)ccn1 (stereo unspecified)	-3.855	20.84	-